PubChem BioAssay AID1259424 | University of Nebraska Medical Center, 2018
The whole screen tested about 14,000 reagents; shown is an unselected part. 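Higher correlation or smaller distance means closer resemblance to KSR1 loss; control wells, including KSR1 knockdowns, recur on many plates.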 Further read-outs or replicates are left out here. The record does not give: the time to read-out.

Assay: 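Rank knockdowns across the genome by resemblance to the KSR1 depletion profile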 (primary screen)
Cell system: human HCT116 colon cancer cells
Reagent: siRNA pool against human genes, 50 nM
Detection: 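Log2 levels of six mRNAs (branched-DNA multiplex), adjusted by two reference genes and the non-targeting median, then scored against the average KSR1 knockdown pattern as Pearson r and euclidean distance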
Scale: mean correlation with KSR1 profile: higher = expression change more like KSR1 knockdown

NUF2 → mean correlation with KSR1 profile: -0.652
AKR1C3 → mean correlation with KSR1 profile: 0.27
PROKR1 → mean correlation with KSR1 profile: 0.872
LMX1A → mean correlation with KSR1 profile: -0.2
DUS4L → mean correlation with KSR1 profile: -0.211
RGS19 → mean correlation with KSR1 profile: 0.957
GALNT7 → mean correlation with KSR1 profile: 0.352
CITED2 → mean correlation with KSR1 profile: 0.573
CDKL2 → mean correlation with KSR1 profile: 0.425
UBR2 → mean correlation with KSR1 profile: 0.142
MAGOHB → mean correlation with KSR1 profile: -0.583
SOHLH2 → mean correlation with KSR1 profile: -0.192

Quoted from the listing, 2 entries:
UBR2 → mean correlation with KSR1 profile: 0.142
MAGOHB → mean correlation with KSR1 profile: -0.583
